This experiment deals with T1, mitochondrial fission factor (MFF) (human (endogenous in primary CD4+ T cells)) (UniProt Q9GZY8).
T1 sequence: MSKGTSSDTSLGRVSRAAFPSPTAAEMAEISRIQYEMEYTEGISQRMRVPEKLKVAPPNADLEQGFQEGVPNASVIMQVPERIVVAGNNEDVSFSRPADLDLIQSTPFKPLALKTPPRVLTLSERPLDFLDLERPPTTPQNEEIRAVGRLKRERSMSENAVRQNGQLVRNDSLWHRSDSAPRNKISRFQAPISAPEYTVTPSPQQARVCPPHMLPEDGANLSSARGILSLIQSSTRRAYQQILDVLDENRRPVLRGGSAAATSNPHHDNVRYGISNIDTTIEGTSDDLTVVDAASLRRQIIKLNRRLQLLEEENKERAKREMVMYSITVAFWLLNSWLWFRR
The experiment is described as follows: co-IP; IP of MFF from cleared lysates of 4 x 10^7 activated CD4+ T cells treated with PBS or TGF-β1 (10 ng/mL) for 2 h; IP lysis buffer 150 mM KCl, 1% Triton X-100, 50 mM Tris-HCl pH7.6, 1 mM EDTA, 10% glycerol; Protein A/G beads and antibody overnight at 4°C; immunoblot. For orientation: In western blotting, separated proteins are transferred to a membrane and probed.

By UniProt entry, the sequences of proteins in these tests, tags left out.
UniProt Q13485: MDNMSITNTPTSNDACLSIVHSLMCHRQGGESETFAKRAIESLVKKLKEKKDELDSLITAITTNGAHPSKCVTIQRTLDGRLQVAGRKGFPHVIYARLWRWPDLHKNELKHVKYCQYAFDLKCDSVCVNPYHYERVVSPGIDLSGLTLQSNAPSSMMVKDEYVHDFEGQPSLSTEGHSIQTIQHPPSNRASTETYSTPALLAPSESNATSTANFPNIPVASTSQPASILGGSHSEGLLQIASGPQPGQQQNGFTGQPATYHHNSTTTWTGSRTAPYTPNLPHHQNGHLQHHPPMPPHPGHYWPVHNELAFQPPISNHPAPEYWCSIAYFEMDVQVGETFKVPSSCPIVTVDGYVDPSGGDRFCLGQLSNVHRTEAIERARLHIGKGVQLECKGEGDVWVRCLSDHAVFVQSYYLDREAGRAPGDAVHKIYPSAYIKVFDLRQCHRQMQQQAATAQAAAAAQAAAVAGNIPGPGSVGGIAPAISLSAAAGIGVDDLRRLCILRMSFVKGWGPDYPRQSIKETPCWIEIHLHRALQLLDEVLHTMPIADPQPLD

No constants are given. Whether binding was seen depends on the method and setting. In cells and extracts the contact can be indirect. Some entries that bind do so weakly or less than the wild type.

For the substance SMAD4 (from UniProt Q13485 1-552), the binding result was “binds”.

Values taken from paper PMC11970399.
